Source: publication PMC4514846
Like-named read-outs stand apart in the source and are kept apart here. These are yes or no findings as the source states them, for the method shown. Some entries that bind do so weakly or less than the wild type. Sequences can lack the tags named with a protein.

The chains behind the UniProt entries cited, without tags or fusion partners. Where a name states a change or a piece, a line headed by the entry shows the natural chain unless it says otherwise.
UniProt Q01939: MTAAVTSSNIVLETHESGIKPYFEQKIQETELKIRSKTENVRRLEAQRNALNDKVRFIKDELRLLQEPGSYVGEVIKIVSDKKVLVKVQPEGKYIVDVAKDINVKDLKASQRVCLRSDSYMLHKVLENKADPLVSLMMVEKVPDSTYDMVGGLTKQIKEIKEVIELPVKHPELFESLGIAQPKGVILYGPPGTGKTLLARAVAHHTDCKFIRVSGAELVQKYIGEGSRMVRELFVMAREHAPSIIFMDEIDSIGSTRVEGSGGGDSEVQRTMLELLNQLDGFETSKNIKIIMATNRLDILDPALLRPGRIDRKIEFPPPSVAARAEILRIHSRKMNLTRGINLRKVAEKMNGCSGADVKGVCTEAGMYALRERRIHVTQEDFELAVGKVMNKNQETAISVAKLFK

What was measured:
Experiment in all cases: tandem affinity purification; base components (Rpt1-6, Rpn1, Rpn2, Rpn13) and chaperones (Nas2, Nas6, Hsm3, Rpn14) co-expressed in E. coli BL21(DE3); lysate on His-Select spin column (His6-Rpt3), eluted with 150 mM imidazole, then anti-FLAG M2 beads (FLAG-Rpt1), eluted with 3x FLAG peptide; TAP buffer 25 mM HEPES pH 7.6, 100 mM NaCl, 100 mM KCl, 10% glycerol, 10 mM MgCl2, 0.5 mM EDTA, 1 mM ATP; eluate read by western blot (anti-FLAG, anti-His) and Oriole stain
[1] = target: T1, FLAG-Rpt1 (Saccharomyces cerevisiae) (UniProt P33299)
T1 sequence: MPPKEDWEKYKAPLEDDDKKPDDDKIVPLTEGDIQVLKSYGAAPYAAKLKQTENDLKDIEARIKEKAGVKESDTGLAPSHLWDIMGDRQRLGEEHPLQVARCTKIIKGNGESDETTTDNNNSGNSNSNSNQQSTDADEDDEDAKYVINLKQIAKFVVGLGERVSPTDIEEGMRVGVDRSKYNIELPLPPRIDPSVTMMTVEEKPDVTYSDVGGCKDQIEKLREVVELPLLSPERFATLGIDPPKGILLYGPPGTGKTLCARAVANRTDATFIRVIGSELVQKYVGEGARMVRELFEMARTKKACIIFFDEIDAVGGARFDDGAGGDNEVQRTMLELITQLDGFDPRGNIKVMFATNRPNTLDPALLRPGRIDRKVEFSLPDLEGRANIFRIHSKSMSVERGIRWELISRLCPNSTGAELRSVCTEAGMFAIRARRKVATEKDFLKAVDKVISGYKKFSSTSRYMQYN

[2] = target: T1, FLAG-Rpt1 (Saccharomyces cerevisiae); remark: listed apart in the source
[3] = target: T2, His6-Rpt3 (Saccharomyces cerevisiae) (UniProt P33298)
T2 sequence: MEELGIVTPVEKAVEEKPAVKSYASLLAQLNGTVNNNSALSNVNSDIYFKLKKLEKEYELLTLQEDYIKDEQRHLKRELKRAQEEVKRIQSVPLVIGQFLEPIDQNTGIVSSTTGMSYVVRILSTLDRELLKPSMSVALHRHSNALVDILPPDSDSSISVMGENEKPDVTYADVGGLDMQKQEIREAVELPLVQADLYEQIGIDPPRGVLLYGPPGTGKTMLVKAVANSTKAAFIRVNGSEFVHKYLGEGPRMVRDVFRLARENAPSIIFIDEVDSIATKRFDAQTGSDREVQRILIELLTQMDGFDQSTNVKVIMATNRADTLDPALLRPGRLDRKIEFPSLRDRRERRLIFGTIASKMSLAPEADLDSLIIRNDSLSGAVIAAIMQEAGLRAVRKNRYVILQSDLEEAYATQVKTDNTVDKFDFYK

In the case of Rpt6 (from UniProt Q01939 1-405), the binding [1] is reported as “binds”.

With “Rpt6Δ50 (from UniProt Q01939 51-405) (domain or fragment)” the binding [1] was “binds weakly”.

B1: Rpn2 (protein, UniProt P32565 1-945)
chain: MSLTTAAPLLALLRENQDSVKTYALESINNVVDQLWSEISNELPDIEALYDDDTFSDREMAALIASKVYYNLGEYESAVKYALAAKDRFDIDEKSQFVETIVSKSIEMYVQEASKQYTKDEQFYTKDIIDPKLTSIFERMIEKCLKASELKLALGIALEGYRLDIIESALKSKLDQDSTSENVKIINYLLTLAITTVTNSKFRSSILRKSFDFLMNMPNCDYLTLNKVVVNLNDAGLALQLFKKLKEENDEGLSAQIAFDLVSSASQQLLEILVTELTAQGYDPALLNILSGLPTCDYYNTFLLNNKNIDIGLLNKSKSSLDGKFSLFHTAVSVANGFMHAGTTDNSFIKANLPWLGKAQNWAKFTATASLGVIHKGNLLEGKKVMAPYLPGSRASSRFIKGGSLYGLGLIYAGFGRDTTDYLKNIIVENSGTSGDEDVDVLLHGASLGIGLAAMGSANIEVYEALKEVLYNDSATSGEAAALGMGLCMLGTGKPEAIHDMFTYSQETQHGNITRGLAVGLALINYGRQELADDLITKMLASDESLLRYGGAFTIALAYAGTGNNSAVKRLLHVAVSDSNDDVRRAAVIALGFVLLRDYTTVPRIVQLLSKSHNAHVRCGTAFALGIACAGKGLQSAIDVLDPLTKDPVDFVRQAAMIALSMILIQQTEKLNPQVADINKNFLSVITNKHQEGLAKFGACVAQGIMNAGGRNVTIQLENADTGTLDTKSVVGLVMFSQFWYWFPLAHFLSLSFTPTTVIGIRGSDQAIPKFQMNCYAKEDAFSYPRMYEEASGKEVEKVATAVLSTTARAKARAKKTKKEKGPNEEEKKKEHEEKEKERETNKKGIKETKENDEEFYKNKYSSKPYKVDNMTRILPQQSRYISFIKDDRFVPVRKFKGNNGVVVLRDREPKEPVALIETVRQMKDVNAPLPTPFKVDDNVDFPSA
In the case of B1, the binding [2] is reported as “binds” and the binding [3] is reported as “binds”.

B2: Rpt4Δ65 (domain or fragment, UniProt P53549 66-437)
chain: EHRRYDDQLKQRRQNIRDLEKLYDKTENDIKALQSIGQLIGEVMKELSEEKYIVKASSGPRYIVGVRNSVDRSKLKKGVRVTLDITTLTIMRILPRETDPLVYNMTSFEQGEITFDGIGGLTEQIRELREVIELPLKNPEIFQRVGIKPPKGVLLYGPPGTGKTLLAKAVAATIGANFIFSPASGIVDKYIGESARIIREMFAYAKEHEPCIIFMDEVDAIGGRRFSEGTSADREIQRTLMELLTQMDGFDNLGQTKIIMATNRPDTLDPALLRPGRLDRKVEIPLPNEAGRLEIFKIHTAKVKKTGEFDFEAAVKMSDGFNGADIRNCATEAGFFAIRDDRDHINPDDLMKAVRKVAEVKKLEGTIEYQKL
B2 was tested, and the binding [2] was “binds”.

B3: Rpt5Δ40 (domain or fragment, UniProt P33297 41-434)
chain: IRIFRSELQRLSHENNVMLEKIKDNKEKIKNNRQLPYLVANVVEVMDMNEIEDKENSESTTQGGNVNLDNTAVGKAAVVKTSSRQTVFLPMVGLVDPDKLKPNDLVGVNKDSYLILDTLPSEFDSRVKAMEVDEKPTETYSDVGGLDKQIEELVEAIVLPMKRADKFKDMGIRAPKGALMYGPPGTGKTLLARACAAQTNATFLKLAAPQLVQMYIGEGAKLVRDAFALAKEKAPTIIFIDELDAIGTKRFDSEKSGDREVQRTMLELLNQLDGFSSDDRVKVLAATNRVDVLDPALLRSGRLDRKIEFPLPSEDSRAQILQIHSRKMTTDDDINWQELARSTDEFNGAQLKAVTVEAGMIALRNGQSSVKHEDFVEGISEVQARKSKSVSFYA
In the case of B3, the binding [3] is reported as “binds”.
